PMC6019379, “RecA-like domain 2 of DNA-dependent ATPase A domain, a SWI2/SNF2 protein, mediates conformational integrity and ATP hydrolysis” (Bioscience Reports, 2018)
Numbering of substitutions follows the chain as printed. Construct, isoform or probe ends are uncertain for at least one entry. Protein sequences can lack the tags named with them.

Tests used:
Test in all cases: intrinsic tryptophan fluorescence titration
Settings in all cases: saturating ATP; recombinant protein; protein details: His (Ni-NTA, pET-14b); folded or branched DNA
[1] = molecular target: T1, ADAAD R592A R812A (Bos taurus (bovine)) (UniProt Q9TTA5)
T1 sequence (looked up, limits assumed): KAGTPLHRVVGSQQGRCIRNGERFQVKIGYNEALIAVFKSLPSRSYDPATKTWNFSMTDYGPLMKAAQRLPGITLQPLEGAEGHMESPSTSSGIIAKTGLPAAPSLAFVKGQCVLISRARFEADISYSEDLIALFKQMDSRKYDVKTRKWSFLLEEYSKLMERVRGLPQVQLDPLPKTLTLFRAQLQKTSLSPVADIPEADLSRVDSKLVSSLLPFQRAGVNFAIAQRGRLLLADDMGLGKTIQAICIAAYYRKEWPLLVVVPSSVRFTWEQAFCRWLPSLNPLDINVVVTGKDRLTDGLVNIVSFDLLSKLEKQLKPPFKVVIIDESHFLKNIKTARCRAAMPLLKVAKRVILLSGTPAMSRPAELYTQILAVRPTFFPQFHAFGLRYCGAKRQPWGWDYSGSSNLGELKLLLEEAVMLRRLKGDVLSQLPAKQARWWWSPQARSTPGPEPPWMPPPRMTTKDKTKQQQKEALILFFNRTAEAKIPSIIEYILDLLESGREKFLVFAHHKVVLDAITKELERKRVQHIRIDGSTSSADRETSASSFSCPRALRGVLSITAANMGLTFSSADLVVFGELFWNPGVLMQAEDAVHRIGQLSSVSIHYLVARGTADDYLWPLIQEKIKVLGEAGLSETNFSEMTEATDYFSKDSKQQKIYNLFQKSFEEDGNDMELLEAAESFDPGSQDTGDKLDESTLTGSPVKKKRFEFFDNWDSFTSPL

[2] = molecular target: T2, ADAAD R595K R815K (Bos taurus (bovine)) (UniProt Q9TTA5)
T2 sequence (looked up, limits assumed): T1 sequence (looked up, limits assumed) with A592R, R595K

[3] = molecular target: T3, ADAAD S558A S778A (Bos taurus (bovine)) (UniProt Q9TTA5)
T3 sequence (looked up, limits assumed): T1 sequence (looked up, limits assumed) with S558A, A592R

[4] = molecular target: T4, ADAAD F507A/R592A F727A,R812A (Bos taurus (bovine)) (UniProt Q9TTA5)
T4 sequence (looked up, limits assumed): T1 sequence (looked up, limits assumed) with F507A

GCGCAATTGCGCTCGACGATTTTTTAGCGCAATTGCGC [slDNA (stem-loop DNA)]
Kd [1]: 6.4 nM
Kd [2]: 7.9 nM
Kd [3]: 13.8 nM
Kd [4]: 9.4 nM
